PubChem BioAssay AID1224830, NIAID – 2016

- Test: 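Regulators of TLR4 signalling towards TNF-alpha in macrophage-like cells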 (primary screen)
- Cell system: human THP-1 monocytic leukaemia cells, TNF dual-luciferase reporter clone, PMA-differentiated to macrophage-like cells
- Reagents: siRNA pool against human genes, 50 nM
- Duration: LPS for 4 h, given about 3 days after siRNA transfection
- Challenge: bacterial LPS (TLR4 ligand), 10 ng/ml
- Detection: 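TNF firefly reporter luminescence divided by renilla, normalised to the plate median, then turned into a robust z-score for each replicate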
- Reading the numbers: TNF reporter robust z-score: higher = stronger TNF reporter response to LPS
- Call rule: 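a well is active when its z-score exceeds 2.8 or falls below -1.5; control wells carry no call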
The whole screen tested about 18,000 reagents; shown is an unselected part. About 2,900 of all reagents (16%) were called active. 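Calls are made per well; low scores hint the gene aids the LPS response, high scores that it dampens it.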 Unmarked entries are inactive. Repeated entries: four replicate wells of each siRNA pool.

The first 2 records, ahead of the listing:
HSFX1
- TNF reporter robust z-score: -1.89 (active)

HSFX1
- TNF reporter robust z-score: -1.69 (active)

Main list, from the first entry:
HSFX1
- TNF reporter robust z-score: -1.89 (active)

HSFX1
- TNF reporter robust z-score: -1.69 (active)

HSFX1
- TNF reporter robust z-score: -1.55 (active)

HSFX1
- TNF reporter robust z-score: -1.85 (active)

TMEM98
- TNF reporter robust z-score: 1.85

TMEM98
- TNF reporter robust z-score: 0.8

TMEM98
- TNF reporter robust z-score: -0.27

TMEM98
- TNF reporter robust z-score: 2.45

MYORG
- TNF reporter robust z-score: 2.57

MYORG
- TNF reporter robust z-score: 0.15

MYORG
- TNF reporter robust z-score: -1

MYORG
- TNF reporter robust z-score: -0.25

REXO1L1P
- TNF reporter robust z-score: 1.56

REXO1L1P
- TNF reporter robust z-score: 0.64

REXO1L1P
- TNF reporter robust z-score: 1.07

REXO1L1P
- TNF reporter robust z-score: 1.68

CYP11A1
- TNF reporter robust z-score: 0.87

CYP11A1
- TNF reporter robust z-score: 0.41

CYP11A1
- TNF reporter robust z-score: -0.06

CYP11A1
- TNF reporter robust z-score: 0.9
